Measured values as given in the supplement of paper PMC11546906.
Counter-ions that a name gives are not always drawn. This is one part of the list. Single values are uncertain here, since repeats match poorly.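 FDA-approved drugs were each paired with colistin at one-eighth its MIC and screened against a multidrug-resistant, mcr-1-positive clinical E. coli isolate, with OD600 read after 24 h. Drug-free bacteria served as growth control, plain broth as blank. Combinations were active if OD600 dropped below 0.2.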

Each compound was assayed on Escherichia coli 42 (mcr-1-positive clinical isolate) (assay: OD600 after 24 h growth with compound plus colistin (absorbance units (OD600)); higher = more bacterial growth (less inhibition)). Settings: first compound 25 µM; colistin concentration 0.5 ug/mL; incubation time 24 h; 37 °C.

Row | Compound | OD600
1 | Cn1nnc2c(C(N)=O)ncn2c1=O [Temozolomide] + CCC(C)CCCC(=O)N[C@@H](CCN)C(=O)N[C@H](C(=O)N[C@@H](CCN)C(=O)N[C@H]1CCNC(=O)[C@H]([C@@H](C)O)NC(=O)[C@H](CCN)NC(=O)[C@H](CCN)NC(=O)[C@H](CC(C)C)NC(=O)[C@@H](CC(C)C)NC(=O)[C@H](CCN)NC1=O)[C@@H](C)O [colistin] | inactive: 1.02
2 | CCN(CC)CC#CCOC(=O)C(O)(c1ccccc1)C1CCCCC1 (centres undefined) [Oxybutynin chloride] + CCC(C)CCCC(=O)N[C@@H](CCN)C(=O)N[C@H](C(=O)N[C@@H](CCN)C(=O)N[C@H]1CCNC(=O)[C@H]([C@@H](C)O)NC(=O)[C@H](CCN)NC(=O)[C@H](CCN)NC(=O)[C@H](CC(C)C)NC(=O)[C@@H](CC(C)C)NC(=O)[C@H](CCN)NC1=O)[C@@H](C)O [colistin] | inactive: 1.05
3 | CNC(=O)c1cc(Oc2ccc(NC(=O)Nc3ccc(Cl)c(C(F)(F)F)c3)cc2)ccn1 [Sorafenib tosylate] + CCC(C)CCCC(=O)N[C@@H](CCN)C(=O)N[C@H](C(=O)N[C@@H](CCN)C(=O)N[C@H]1CCNC(=O)[C@H]([C@@H](C)O)NC(=O)[C@H](CCN)NC(=O)[C@H](CCN)NC(=O)[C@H](CC(C)C)NC(=O)[C@@H](CC(C)C)NC(=O)[C@H](CCN)NC1=O)[C@@H](C)O [colistin] | active: 0.045
4 | CC1=Nc2ccc(Cl)cc2S(=O)(=O)N1 [Diazoxide] + CCC(C)CCCC(=O)N[C@@H](CCN)C(=O)N[C@H](C(=O)N[C@@H](CCN)C(=O)N[C@H]1CCNC(=O)[C@H]([C@@H](C)O)NC(=O)[C@H](CCN)NC(=O)[C@H](CCN)NC(=O)[C@H](CC(C)C)NC(=O)[C@@H](CC(C)C)NC(=O)[C@H](CCN)NC1=O)[C@@H](C)O [colistin] | inactive: 1.07
5 | Cc1ccc(NC(=O)C2(c3ccc4c(c3)OC(F)(F)O4)CC2)nc1-c1cccc(C(=O)O)c1 [Lumacaftor] + CCC(C)CCCC(=O)N[C@@H](CCN)C(=O)N[C@H](C(=O)N[C@@H](CCN)C(=O)N[C@H]1CCNC(=O)[C@H]([C@@H](C)O)NC(=O)[C@H](CCN)NC(=O)[C@H](CCN)NC(=O)[C@H](CC(C)C)NC(=O)[C@@H](CC(C)C)NC(=O)[C@H](CCN)NC1=O)[C@@H](C)O [colistin] | inactive: 1
6 | Cc1cn([C@H]2C=C[C@@H](CO)O2)c(=O)[nH]c1=O [Stavudine] + CCC(C)CCCC(=O)N[C@@H](CCN)C(=O)N[C@H](C(=O)N[C@@H](CCN)C(=O)N[C@H]1CCNC(=O)[C@H]([C@@H](C)O)NC(=O)[C@H](CCN)NC(=O)[C@H](CCN)NC(=O)[C@H](CC(C)C)NC(=O)[C@@H](CC(C)C)NC(=O)[C@H](CCN)NC1=O)[C@@H](C)O [colistin] | inactive: 0.685
7 | COc1ccc2[nH]c([S+]([O-])Cc3ncc(C)c(OC)c3C)nc2c1 (centres undefined) [Omeprazole] + CCC(C)CCCC(=O)N[C@@H](CCN)C(=O)N[C@H](C(=O)N[C@@H](CCN)C(=O)N[C@H]1CCNC(=O)[C@H]([C@@H](C)O)NC(=O)[C@H](CCN)NC(=O)[C@H](CCN)NC(=O)[C@H](CC(C)C)NC(=O)[C@@H](CC(C)C)NC(=O)[C@H](CCN)NC1=O)[C@@H](C)O [colistin] | inactive: 1.12
8 | CN[C@H]1CC[C@@H](c2ccc(Cl)c(Cl)c2)c2ccccc21 [Sertraline hydrochloride] + CCC(C)CCCC(=O)N[C@@H](CCN)C(=O)N[C@H](C(=O)N[C@@H](CCN)C(=O)N[C@H]1CCNC(=O)[C@H]([C@@H](C)O)NC(=O)[C@H](CCN)NC(=O)[C@H](CCN)NC(=O)[C@H](CC(C)C)NC(=O)[C@@H](CC(C)C)NC(=O)[C@H](CCN)NC1=O)[C@@H](C)O [colistin] | active: 0.037
9 | C[C@H](CCC(=O)NCCS(=O)(=O)O)[C@H]1CC[C@H]2[C@@H]3[C@@H](O)C[C@@H]4C[C@H](O)CC[C@]4(C)[C@H]3CC[C@]12C [Tauroursodeoxycholate] + CCC(C)CCCC(=O)N[C@@H](CCN)C(=O)N[C@H](C(=O)N[C@@H](CCN)C(=O)N[C@H]1CCNC(=O)[C@H]([C@@H](C)O)NC(=O)[C@H](CCN)NC(=O)[C@H](CCN)NC(=O)[C@H](CC(C)C)NC(=O)[C@@H](CC(C)C)NC(=O)[C@H](CCN)NC1=O)[C@@H](C)O [colistin] | inactive: 0.789
10 | CCCN[C@H]1CCc2nc(N)sc2C1 [Pramipexole dihydrochloride hydrate] + CCC(C)CCCC(=O)N[C@@H](CCN)C(=O)N[C@H](C(=O)N[C@@H](CCN)C(=O)N[C@H]1CCNC(=O)[C@H]([C@@H](C)O)NC(=O)[C@H](CCN)NC(=O)[C@H](CCN)NC(=O)[C@H](CC(C)C)NC(=O)[C@@H](CC(C)C)NC(=O)[C@H](CCN)NC1=O)[C@@H](C)O [colistin] | inactive: 1.06
11 | COc1ccnc(C[S+]([O-])c2nc3cc(OC(F)F)ccc3[nH]2)c1OC (centres undefined) [Pantoprazole sodium] + CCC(C)CCCC(=O)N[C@@H](CCN)C(=O)N[C@H](C(=O)N[C@@H](CCN)C(=O)N[C@H]1CCNC(=O)[C@H]([C@@H](C)O)NC(=O)[C@H](CCN)NC(=O)[C@H](CCN)NC(=O)[C@H](CC(C)C)NC(=O)[C@@H](CC(C)C)NC(=O)[C@H](CCN)NC1=O)[C@@H](C)O [colistin] | inactive: 1.05
12 | O=C(O)Cc1ccccc1Nc1c(Cl)cccc1Cl [Diclofenac] + CCC(C)CCCC(=O)N[C@@H](CCN)C(=O)N[C@H](C(=O)N[C@@H](CCN)C(=O)N[C@H]1CCNC(=O)[C@H]([C@@H](C)O)NC(=O)[C@H](CCN)NC(=O)[C@H](CCN)NC(=O)[C@H](CC(C)C)NC(=O)[C@@H](CC(C)C)NC(=O)[C@H](CCN)NC1=O)[C@@H](C)O [colistin] | inactive: 0.916
13 | COCCOC(=O)C1=C(C)NC(C)=C(C(=O)OC(C)C)C1c1cccc([N+](=O)[O-])c1 (centres undefined) [Nimodipine] + CCC(C)CCCC(=O)N[C@@H](CCN)C(=O)N[C@H](C(=O)N[C@@H](CCN)C(=O)N[C@H]1CCNC(=O)[C@H]([C@@H](C)O)NC(=O)[C@H](CCN)NC(=O)[C@H](CCN)NC(=O)[C@H](CC(C)C)NC(=O)[C@@H](CC(C)C)NC(=O)[C@H](CCN)NC1=O)[C@@H](C)O [colistin] | inactive: 0.758
14 | CC(=O)CCCCn1c(=O)c2c(ncn2C)n(C)c1=O [Pentoxifylline] + CCC(C)CCCC(=O)N[C@@H](CCN)C(=O)N[C@H](C(=O)N[C@@H](CCN)C(=O)N[C@H]1CCNC(=O)[C@H]([C@@H](C)O)NC(=O)[C@H](CCN)NC(=O)[C@H](CCN)NC(=O)[C@H](CC(C)C)NC(=O)[C@@H](CC(C)C)NC(=O)[C@H](CCN)NC1=O)[C@@H](C)O [colistin] | inactive: 0.983
15 | COc1ccc(-c2ccc3cc(C(=O)O)ccc3c2)cc1C12CC3CC(CC(C3)C1)C2 [Adapalene] + CCC(C)CCCC(=O)N[C@@H](CCN)C(=O)N[C@H](C(=O)N[C@@H](CCN)C(=O)N[C@H]1CCNC(=O)[C@H]([C@@H](C)O)NC(=O)[C@H](CCN)NC(=O)[C@H](CCN)NC(=O)[C@H](CC(C)C)NC(=O)[C@@H](CC(C)C)NC(=O)[C@H](CCN)NC1=O)[C@@H](C)O [colistin] | inactive: 1.12
16 | NC[C@H](O)c1ccc(O)c(O)c1 [Noradrenaline bitartrate] + CCC(C)CCCC(=O)N[C@@H](CCN)C(=O)N[C@H](C(=O)N[C@@H](CCN)C(=O)N[C@H]1CCNC(=O)[C@H]([C@@H](C)O)NC(=O)[C@H](CCN)NC(=O)[C@H](CCN)NC(=O)[C@H](CC(C)C)NC(=O)[C@@H](CC(C)C)NC(=O)[C@H](CCN)NC1=O)[C@@H](C)O [colistin] | inactive: 0.919
17 | COc1c(C)c2c(c(O)c1C/C=C(\C)CCC(=O)OCCN1CCOCC1)C(=O)OC2 + CCC(C)CCCC(=O)N[C@@H](CCN)C(=O)N[C@H](C(=O)N[C@@H](CCN)C(=O)N[C@H]1CCNC(=O)[C@H]([C@@H](C)O)NC(=O)[C@H](CCN)NC(=O)[C@H](CCN)NC(=O)[C@H](CC(C)C)NC(=O)[C@@H](CC(C)C)NC(=O)[C@H](CCN)NC1=O)[C@@H](C)O [colistin] | inactive: 1.01
18 | N[C@@H](C(=O)N[C@@H]1C(=O)N2C(C(=O)O)=C(Cl)CS[C@H]12)c1ccccc1 [Cefaclor monohydrate] + CCC(C)CCCC(=O)N[C@@H](CCN)C(=O)N[C@H](C(=O)N[C@@H](CCN)C(=O)N[C@H]1CCNC(=O)[C@H]([C@@H](C)O)NC(=O)[C@H](CCN)NC(=O)[C@H](CCN)NC(=O)[C@H](CC(C)C)NC(=O)[C@@H](CC(C)C)NC(=O)[C@H](CCN)NC1=O)[C@@H](C)O [colistin] | inactive: 0.876
19 | CCC[C@@H]1C[C@@H](C(=O)N[C@@H]([C@H]2O[C@H](SC)[C@H](O)[C@@H](O)[C@H]2O)[C@@H](C)O)N(C)C1 [Lincomycin hydrochloride] + CCC(C)CCCC(=O)N[C@@H](CCN)C(=O)N[C@H](C(=O)N[C@@H](CCN)C(=O)N[C@H]1CCNC(=O)[C@H]([C@@H](C)O)NC(=O)[C@H](CCN)NC(=O)[C@H](CCN)NC(=O)[C@H](CC(C)C)NC(=O)[C@@H](CC(C)C)NC(=O)[C@H](CCN)NC1=O)[C@@H](C)O [colistin] | inactive: 0.996

Laid out differently: entries from further up.
Row	Compound	OD600
18	N[C@@H](C(=O)N[C@@H]1C(=O)N2C(C(=O)O)=C(Cl)CS[C@H]12)c1ccccc1 [Cefaclor monohydrate] + CCC(C)CCCC(=O)N[C@@H](CCN)C(=O)N[C@H](C(=O)N[C@@H](CCN)C(=O)N[C@H]1CCNC(=O)[C@H]([C@@H](C)O)NC(=O)[C@H](CCN)NC(=O)[C@H](CCN)NC(=O)[C@H](CC(C)C)NC(=O)[C@@H](CC(C)C)NC(=O)[C@H](CCN)NC1=O)[C@@H](C)O [colistin]	inactive: 0.876
19	CCC[C@@H]1C[C@@H](C(=O)N[C@@H]([C@H]2O[C@H](SC)[C@H](O)[C@@H](O)[C@H]2O)[C@@H](C)O)N(C)C1 [Lincomycin hydrochloride] + CCC(C)CCCC(=O)N[C@@H](CCN)C(=O)N[C@H](C(=O)N[C@@H](CCN)C(=O)N[C@H]1CCNC(=O)[C@H]([C@@H](C)O)NC(=O)[C@H](CCN)NC(=O)[C@H](CCN)NC(=O)[C@H](CC(C)C)NC(=O)[C@@H](CC(C)C)NC(=O)[C@H](CCN)NC1=O)[C@@H](C)O [colistin]	inactive: 0.996
